# US20090074774A1, “Fgfr binding peptides” (priority 2004, published 2009)
# Amino acid sequences for entries named in this document (tags omitted). Residues count along the entry.
# UniProt P11362, 22-822: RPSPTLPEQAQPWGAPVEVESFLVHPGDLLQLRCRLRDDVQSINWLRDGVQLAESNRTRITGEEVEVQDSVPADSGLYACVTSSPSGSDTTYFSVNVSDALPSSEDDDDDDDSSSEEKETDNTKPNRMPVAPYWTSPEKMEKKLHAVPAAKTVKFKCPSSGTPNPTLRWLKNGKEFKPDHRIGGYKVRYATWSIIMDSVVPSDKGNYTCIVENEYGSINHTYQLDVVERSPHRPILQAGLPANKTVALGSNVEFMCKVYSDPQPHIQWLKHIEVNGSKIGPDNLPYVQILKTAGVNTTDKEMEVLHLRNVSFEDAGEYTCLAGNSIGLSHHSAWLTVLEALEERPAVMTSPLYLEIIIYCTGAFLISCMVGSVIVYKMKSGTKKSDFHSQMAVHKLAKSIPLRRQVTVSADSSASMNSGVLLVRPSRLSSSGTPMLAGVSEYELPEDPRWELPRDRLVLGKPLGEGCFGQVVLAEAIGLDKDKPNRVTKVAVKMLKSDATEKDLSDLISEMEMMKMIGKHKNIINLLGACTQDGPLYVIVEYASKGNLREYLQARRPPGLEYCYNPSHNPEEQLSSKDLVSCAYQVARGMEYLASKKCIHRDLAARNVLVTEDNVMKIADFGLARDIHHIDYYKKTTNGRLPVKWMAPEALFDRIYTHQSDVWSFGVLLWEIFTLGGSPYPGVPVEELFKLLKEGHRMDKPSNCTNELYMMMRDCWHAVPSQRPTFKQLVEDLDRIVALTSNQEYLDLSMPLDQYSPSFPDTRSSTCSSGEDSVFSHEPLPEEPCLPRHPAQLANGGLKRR
# Some entries share one result that the patent states for a list of compounds. Some compounds share one range, which may span the group rather than tell each member.
# Target: T1, human FGFR1 (Homo sapiens, UniProt P11362)
# T1 construct: expressed in transfected cells
# Assay: Phosphorylation of FGFR in transfected TREX-293 cells
# Assay type: cell-based
# Settings: TREX-293 cells stably transfected with human FGFR1 StrepII-tag
row,Sequence,increase of phosphorylation of FGFR compared to non-stimulated cells
1,"KAEWKSLGEEAWHSK (CDL peptide, fragment of NCAM F3,1) [C strand-loop-D strand fragment of NCAM F3, 1 module]",2-3 fold
2,"SIDRVEPYSSTAQVQFD (ABL peptide, fragment of NCAM F3,1) [A strand-loop-B strand fragment of NCAM F3, 1 module]",2-3 fold
3,"TIMGLKPETRYAVR (TIMGLKPETRTYAVR; EFL peptide, fragment of NCAM F3,1) [E strand-loop-F strand fragment of NCAM F3, 1, used as positive control, reference compound]",2-3 fold
